Reference: the supplement of paper PMC10849652
Some of the results follow.

Protein sequences, listed by entry. Tags and fused reporters are not part of them. Lines headed by an entry give the natural chain unless they say otherwise; changes in a name come on top.
UniProt Q9Y6I9: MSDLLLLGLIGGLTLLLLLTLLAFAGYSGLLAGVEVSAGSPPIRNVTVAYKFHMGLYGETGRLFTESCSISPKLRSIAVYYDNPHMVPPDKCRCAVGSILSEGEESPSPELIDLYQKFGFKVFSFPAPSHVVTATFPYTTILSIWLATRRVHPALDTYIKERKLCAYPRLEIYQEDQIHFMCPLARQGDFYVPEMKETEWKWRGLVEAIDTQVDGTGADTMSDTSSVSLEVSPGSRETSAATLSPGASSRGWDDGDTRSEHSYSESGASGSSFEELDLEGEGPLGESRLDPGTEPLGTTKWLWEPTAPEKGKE
UniProt P52888, whole entry, looked up: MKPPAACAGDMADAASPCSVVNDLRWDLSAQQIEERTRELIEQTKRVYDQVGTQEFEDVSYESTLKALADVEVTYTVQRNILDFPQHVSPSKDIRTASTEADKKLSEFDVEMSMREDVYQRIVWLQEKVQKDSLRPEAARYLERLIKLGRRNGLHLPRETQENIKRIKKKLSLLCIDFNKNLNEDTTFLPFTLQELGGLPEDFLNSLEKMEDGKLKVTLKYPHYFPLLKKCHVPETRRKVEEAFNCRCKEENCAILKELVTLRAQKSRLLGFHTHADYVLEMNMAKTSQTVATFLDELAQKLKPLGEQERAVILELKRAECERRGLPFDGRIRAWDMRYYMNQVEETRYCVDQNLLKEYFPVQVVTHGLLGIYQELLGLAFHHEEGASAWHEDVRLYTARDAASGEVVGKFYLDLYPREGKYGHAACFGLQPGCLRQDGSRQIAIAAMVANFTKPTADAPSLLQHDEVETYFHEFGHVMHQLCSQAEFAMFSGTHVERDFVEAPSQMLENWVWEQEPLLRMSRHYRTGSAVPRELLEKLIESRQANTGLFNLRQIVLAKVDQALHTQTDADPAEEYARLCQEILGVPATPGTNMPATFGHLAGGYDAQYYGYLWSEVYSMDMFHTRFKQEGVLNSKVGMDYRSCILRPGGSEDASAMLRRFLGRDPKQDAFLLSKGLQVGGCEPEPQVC
UniProt Q9BZK7: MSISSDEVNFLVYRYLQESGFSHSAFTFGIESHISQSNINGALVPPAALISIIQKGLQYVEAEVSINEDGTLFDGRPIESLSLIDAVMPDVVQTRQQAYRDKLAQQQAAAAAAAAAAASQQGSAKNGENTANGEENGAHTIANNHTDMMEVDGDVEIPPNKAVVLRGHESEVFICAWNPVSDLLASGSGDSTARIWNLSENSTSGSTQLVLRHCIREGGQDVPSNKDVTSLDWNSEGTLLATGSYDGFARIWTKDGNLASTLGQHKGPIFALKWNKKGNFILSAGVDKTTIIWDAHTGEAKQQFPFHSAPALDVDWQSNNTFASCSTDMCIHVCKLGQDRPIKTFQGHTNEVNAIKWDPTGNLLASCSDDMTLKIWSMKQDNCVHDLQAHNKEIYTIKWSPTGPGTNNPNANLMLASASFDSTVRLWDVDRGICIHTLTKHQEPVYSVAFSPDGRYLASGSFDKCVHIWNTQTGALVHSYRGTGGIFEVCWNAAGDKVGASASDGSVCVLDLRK
UniProt Q66K14, whole entry, looked up: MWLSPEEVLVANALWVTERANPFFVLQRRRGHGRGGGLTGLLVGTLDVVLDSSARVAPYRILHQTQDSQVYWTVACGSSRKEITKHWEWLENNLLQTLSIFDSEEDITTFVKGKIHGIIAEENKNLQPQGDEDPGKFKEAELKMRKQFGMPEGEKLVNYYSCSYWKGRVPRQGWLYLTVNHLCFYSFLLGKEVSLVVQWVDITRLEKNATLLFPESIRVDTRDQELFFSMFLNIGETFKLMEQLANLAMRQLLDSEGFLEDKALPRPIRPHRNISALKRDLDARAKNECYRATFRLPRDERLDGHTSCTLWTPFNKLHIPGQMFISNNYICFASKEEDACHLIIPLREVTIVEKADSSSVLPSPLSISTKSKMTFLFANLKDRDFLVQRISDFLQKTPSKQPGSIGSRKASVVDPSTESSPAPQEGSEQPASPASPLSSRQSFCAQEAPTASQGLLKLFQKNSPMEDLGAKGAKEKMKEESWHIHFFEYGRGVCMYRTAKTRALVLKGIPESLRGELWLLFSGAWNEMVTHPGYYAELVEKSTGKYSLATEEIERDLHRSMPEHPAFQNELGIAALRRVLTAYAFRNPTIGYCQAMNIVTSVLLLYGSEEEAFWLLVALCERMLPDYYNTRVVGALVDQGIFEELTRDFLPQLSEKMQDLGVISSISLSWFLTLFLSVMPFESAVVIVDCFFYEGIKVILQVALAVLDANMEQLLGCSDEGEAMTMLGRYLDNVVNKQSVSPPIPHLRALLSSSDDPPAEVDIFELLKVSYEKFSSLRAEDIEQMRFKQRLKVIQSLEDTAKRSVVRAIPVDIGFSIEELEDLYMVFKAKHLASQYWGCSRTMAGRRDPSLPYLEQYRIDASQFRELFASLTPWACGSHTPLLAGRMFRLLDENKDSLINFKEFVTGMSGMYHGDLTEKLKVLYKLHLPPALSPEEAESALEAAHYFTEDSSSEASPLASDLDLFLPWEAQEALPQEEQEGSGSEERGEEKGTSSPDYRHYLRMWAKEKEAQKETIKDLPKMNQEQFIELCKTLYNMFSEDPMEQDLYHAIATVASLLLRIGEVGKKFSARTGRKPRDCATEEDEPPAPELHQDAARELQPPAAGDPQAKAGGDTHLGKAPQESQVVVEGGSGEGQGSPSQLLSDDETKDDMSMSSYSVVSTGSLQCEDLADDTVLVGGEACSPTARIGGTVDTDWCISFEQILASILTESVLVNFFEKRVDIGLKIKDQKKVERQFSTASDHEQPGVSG
UniProt Q3LXA3: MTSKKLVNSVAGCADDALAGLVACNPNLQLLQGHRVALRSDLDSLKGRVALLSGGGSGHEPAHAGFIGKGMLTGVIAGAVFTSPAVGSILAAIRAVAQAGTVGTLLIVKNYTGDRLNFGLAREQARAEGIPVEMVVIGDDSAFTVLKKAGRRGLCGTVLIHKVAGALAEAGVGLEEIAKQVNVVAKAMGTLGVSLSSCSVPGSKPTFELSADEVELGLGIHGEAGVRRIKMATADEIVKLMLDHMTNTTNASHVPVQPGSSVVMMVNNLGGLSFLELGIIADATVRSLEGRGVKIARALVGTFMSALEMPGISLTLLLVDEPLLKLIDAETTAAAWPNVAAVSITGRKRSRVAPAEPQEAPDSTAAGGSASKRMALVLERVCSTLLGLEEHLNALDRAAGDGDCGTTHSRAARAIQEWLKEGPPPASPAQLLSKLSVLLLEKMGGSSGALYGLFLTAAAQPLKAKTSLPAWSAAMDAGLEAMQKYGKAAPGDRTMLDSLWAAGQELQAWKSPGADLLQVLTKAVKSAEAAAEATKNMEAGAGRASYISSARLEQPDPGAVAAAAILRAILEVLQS
UniProt O60220: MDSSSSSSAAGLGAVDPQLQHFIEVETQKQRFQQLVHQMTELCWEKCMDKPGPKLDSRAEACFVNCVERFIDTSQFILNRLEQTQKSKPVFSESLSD
UniProt P02786, whole entry, looked up: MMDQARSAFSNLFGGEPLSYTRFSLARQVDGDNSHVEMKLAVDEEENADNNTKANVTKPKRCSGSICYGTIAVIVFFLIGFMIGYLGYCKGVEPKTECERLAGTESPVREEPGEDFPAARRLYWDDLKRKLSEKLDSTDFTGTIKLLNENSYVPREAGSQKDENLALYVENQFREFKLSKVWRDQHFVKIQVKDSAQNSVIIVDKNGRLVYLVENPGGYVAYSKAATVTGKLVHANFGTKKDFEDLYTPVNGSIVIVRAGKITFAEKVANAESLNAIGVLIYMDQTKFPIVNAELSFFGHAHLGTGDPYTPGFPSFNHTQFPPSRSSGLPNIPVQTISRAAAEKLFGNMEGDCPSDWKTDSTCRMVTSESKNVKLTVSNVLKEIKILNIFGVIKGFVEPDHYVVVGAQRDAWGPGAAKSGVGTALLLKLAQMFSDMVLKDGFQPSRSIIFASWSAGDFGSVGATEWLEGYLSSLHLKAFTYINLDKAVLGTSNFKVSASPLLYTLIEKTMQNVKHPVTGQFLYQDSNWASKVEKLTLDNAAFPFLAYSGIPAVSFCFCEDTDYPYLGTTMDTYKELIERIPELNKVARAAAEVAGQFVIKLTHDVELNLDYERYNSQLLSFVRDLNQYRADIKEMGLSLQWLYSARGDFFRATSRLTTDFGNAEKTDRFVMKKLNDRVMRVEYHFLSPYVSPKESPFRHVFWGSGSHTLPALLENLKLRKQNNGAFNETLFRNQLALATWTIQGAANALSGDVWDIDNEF
UniProt O75347: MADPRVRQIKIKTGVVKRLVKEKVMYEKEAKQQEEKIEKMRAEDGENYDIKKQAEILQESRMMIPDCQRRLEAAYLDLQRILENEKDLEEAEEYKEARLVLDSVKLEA
UniProt Q04726: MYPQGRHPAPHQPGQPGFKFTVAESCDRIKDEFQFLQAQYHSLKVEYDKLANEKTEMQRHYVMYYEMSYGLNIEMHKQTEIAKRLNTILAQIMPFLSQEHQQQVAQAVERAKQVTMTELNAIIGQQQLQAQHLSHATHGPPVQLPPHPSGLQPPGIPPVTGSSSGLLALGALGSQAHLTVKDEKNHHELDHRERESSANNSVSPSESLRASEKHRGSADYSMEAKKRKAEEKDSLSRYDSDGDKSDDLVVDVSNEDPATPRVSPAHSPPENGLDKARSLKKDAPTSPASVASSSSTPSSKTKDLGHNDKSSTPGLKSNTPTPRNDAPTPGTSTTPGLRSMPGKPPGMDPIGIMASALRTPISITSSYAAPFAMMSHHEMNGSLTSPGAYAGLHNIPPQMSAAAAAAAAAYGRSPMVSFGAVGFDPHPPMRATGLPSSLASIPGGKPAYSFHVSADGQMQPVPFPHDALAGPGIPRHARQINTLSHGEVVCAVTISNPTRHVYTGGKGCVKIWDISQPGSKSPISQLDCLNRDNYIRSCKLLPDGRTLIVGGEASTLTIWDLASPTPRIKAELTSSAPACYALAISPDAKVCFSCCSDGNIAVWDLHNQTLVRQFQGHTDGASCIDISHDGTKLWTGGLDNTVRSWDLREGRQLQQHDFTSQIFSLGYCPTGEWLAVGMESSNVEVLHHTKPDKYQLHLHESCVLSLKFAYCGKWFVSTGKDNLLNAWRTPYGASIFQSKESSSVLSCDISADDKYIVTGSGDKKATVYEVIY
UniProt O95551: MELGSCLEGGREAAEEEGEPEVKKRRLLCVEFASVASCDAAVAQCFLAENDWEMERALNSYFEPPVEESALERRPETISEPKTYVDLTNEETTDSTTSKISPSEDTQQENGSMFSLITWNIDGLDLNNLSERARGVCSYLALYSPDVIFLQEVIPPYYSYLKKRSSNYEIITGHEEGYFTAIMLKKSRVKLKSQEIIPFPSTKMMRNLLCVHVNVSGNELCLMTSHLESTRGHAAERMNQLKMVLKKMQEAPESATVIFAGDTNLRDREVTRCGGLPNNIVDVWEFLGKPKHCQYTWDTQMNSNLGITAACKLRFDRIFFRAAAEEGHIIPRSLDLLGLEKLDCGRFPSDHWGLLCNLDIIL
UniProt Q9NZ01: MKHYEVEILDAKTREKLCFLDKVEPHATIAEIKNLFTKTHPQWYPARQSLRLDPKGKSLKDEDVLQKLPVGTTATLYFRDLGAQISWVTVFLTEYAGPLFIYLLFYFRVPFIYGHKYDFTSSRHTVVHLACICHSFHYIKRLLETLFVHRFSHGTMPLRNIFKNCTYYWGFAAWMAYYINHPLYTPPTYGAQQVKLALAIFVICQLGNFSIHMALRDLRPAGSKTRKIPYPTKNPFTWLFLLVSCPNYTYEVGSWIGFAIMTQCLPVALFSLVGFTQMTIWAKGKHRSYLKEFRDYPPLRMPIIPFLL
UniProt Q9Y5L4: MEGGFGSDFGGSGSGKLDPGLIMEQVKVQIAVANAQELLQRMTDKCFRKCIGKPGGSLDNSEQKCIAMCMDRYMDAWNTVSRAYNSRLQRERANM
UniProt Q13769: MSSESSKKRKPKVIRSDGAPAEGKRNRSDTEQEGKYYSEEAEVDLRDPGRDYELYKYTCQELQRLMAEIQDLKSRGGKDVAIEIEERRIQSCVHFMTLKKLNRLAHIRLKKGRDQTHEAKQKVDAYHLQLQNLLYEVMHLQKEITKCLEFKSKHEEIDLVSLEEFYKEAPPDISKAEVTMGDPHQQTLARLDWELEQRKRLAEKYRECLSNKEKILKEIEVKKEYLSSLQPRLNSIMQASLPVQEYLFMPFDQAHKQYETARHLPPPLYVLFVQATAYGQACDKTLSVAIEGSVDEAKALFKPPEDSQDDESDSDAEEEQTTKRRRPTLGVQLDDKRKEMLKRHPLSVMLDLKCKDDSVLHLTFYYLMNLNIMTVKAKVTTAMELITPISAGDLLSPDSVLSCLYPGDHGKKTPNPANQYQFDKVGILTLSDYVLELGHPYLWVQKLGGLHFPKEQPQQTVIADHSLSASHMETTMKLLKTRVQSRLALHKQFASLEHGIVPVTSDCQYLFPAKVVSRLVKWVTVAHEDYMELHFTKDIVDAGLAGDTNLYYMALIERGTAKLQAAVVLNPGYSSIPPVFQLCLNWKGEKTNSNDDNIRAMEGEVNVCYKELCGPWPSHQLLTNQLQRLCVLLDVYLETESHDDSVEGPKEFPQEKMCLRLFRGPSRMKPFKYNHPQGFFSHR

What follows are targets tested with Cc1ccc(C(=O)N(CCCN)[C@@H](c2nc3cc(Cl)ccc3c(=O)n2Cc2ccccc2)C(C)C)cc1 [ispinesib] (assay: log2 fold change, soluble protein after heating vs DMSO (PISA); higher = thermal stabilisation; K562 cells, 10 uM, 30 min; active = over 0.2 and 3.5 SD of the protein, either way, in both replicates (recomputed)).
In short: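 K562 cells at 2×10^6 cells/mL were exposed to 10 μM compound for 30 min, then aliquots were heated for 3 min across 48°C-58°C, pooled, and extracted in PBS containing 0.5% NP-40 at 4°C. The supernatant after 21,000xg for 90 min was taken as soluble protein and measured by TMTpro 16plex LC-MS/MS with channel sums equalised. Thermal stability is reported relative to control samples, with values from duplicates. Fold changes are given on a log2 scale.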

Target	log2 fold change
TEX264 (UniProt Q9Y6I9)	inactive: -0.016
THOP1 (UniProt P52888)	inactive: 0.068
TGFBRAP1 (UniProt Q8WUH2)	inactive: -0.221
TIMM9 (UniProt Q9Y5J7)	inactive: 0.215
TCF3 (UniProt P15923)	inactive: 0.044
TIMM10 (UniProt P62072)	inactive: 0.103
TFR2 (UniProt Q9UP52)	inactive: -0.097
TBL1XR1 (UniProt Q9BZK7)	inactive: 0.07
TBC1D9B (UniProt Q66K14)	inactive: -0.127
TKFC (UniProt Q3LXA3)	inactive: 0.022
TGFBR1 isoform 2 (UniProt P36897)	inactive: -0.156
TCOF1 isoform 4 (UniProt Q13428)	inactive: -0.01
TIMM8A (UniProt O60220)	inactive: 0.347
THUMPD2 (UniProt Q9BTF0)	inactive: 0.091
TFB2M (UniProt Q9H5Q4)	inactive: -0.044
TIMM17A (UniProt Q99595)	inactive: 0.012
TFRC (UniProt P02786)	inactive: -0.059
THG1L (UniProt Q9NWX6)	inactive: 0.047
TBCC (UniProt Q15814)	inactive: 0.045
TES (UniProt Q9UGI8)	inactive: 0.043

Reformatted: entries from further up
Target | log2 fold change
THG1L (UniProt Q9NWX6) | inactive: 0.047
TBCC (UniProt Q15814) | inactive: 0.045
TES (UniProt Q9UGI8) | inactive: 0.043

More results follow:

Target	log2 fold change
TELO2 (UniProt Q9Y4R8)	inactive: -0.136
TBCA (UniProt O75347)	inactive: -0.023
TBC1D4 (UniProt O60343)	inactive: -0.009
TIAL1 isoform 2 (UniProt Q01085)	inactive: 0.01
TLE3 isoform 4 (UniProt Q04726)	inactive: 0.086
TGM2 (UniProt P21980)	inactive: 0.019
TGFB1 (UniProt P01137)	inactive: 0.056
TDP2 isoform 2 (UniProt O95551)	inactive: -0.118
TECR (UniProt Q9NZ01)	active: -0.501
TIMM22 (UniProt Q9Y584)	inactive: 0.161
THBS4 (UniProt P35443)	inactive: -0.117
TERF2 (UniProt Q15554)	inactive: -0.049
TICAM2 isoform 2 (UniProt Q86XR7)	inactive: 0.075
TIMM13 (UniProt Q9Y5L4)	inactive: 0.12
TBL1X (UniProt O60907)	inactive: 0.035
TF (UniProt P02787)	inactive: -0.043
THOC5 (UniProt Q13769)	inactive: 0.031
TBC1D15 isoform 3 (UniProt Q8TC07)	inactive: -0.154
TESC (UniProt Q96BS2)	inactive: 0.056
TCERG1 (UniProt O14776)	inactive: 0.015
